Taken from: PubChem BioAssay AID1259405 (NCATS, 2018)
Test: 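Knock-downs that lift recombinant protein yield in hamster ovary cells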 (primary screen). System: Chinese hamster CHO-K1 ovary cells with stable secreted eGFP expression. Knock-down reagent: single siRNA against mouse genes, 0.8 pmol siRNA per well (2 µl of 400 nM stock). Time to read-out: 3 days. Read-out: 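Per-well intracellular GFP measured by laser scanning cytometry, plus viability from ATP luminescence, each relative to plate median of non-targeting control wells, in %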. Reading the numbers: GFP, % of control: higher = more GFP per well, higher productivity; viability (ATP), % of control: higher = more viable cells (more ATP). Call rule: 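Called active when intracellular GFP, relative to negative control, is at or above 120%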.
In all, the deposit lists about 50,000 reagents; this is a random part of them. About 4,000 of them (8%) were called active. 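Mouse siRNA library applied to hamster cells; one well for each siRNA.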 The numbers tell different reagents against one gene apart.

{"gene":"Or1o1","siRNA no.":1,"GFP, % of control":58.3,"viability (ATP), % of control":56.1,"Call":"inactive"}
{"gene":"Or1o1","siRNA no.":2,"GFP, % of control":69.4,"viability (ATP), % of control":83.7,"Call":"inactive"}
{"gene":"Or1o1","siRNA no.":3,"GFP, % of control":158,"viability (ATP), % of control":65.6,"Call":"active"}
{"gene":"Ggt1","siRNA no.":1,"GFP, % of control":96.9,"viability (ATP), % of control":92.5,"Call":"inactive"}
{"gene":"Ggt1","siRNA no.":2,"GFP, % of control":77.9,"viability (ATP), % of control":86.4,"Call":"inactive"}
{"gene":"Ggt1","siRNA no.":3,"GFP, % of control":88.5,"viability (ATP), % of control":74.3,"Call":"inactive"}
{"gene":"Snapc1","siRNA no.":1,"GFP, % of control":86.9,"viability (ATP), % of control":74.8,"Call":"inactive"}
{"gene":"Snapc1","siRNA no.":2,"GFP, % of control":60.7,"viability (ATP), % of control":65.6,"Call":"inactive"}
{"gene":"Snapc1","siRNA no.":3,"GFP, % of control":72.8,"viability (ATP), % of control":66.2,"Call":"inactive"}
{"gene":"Lgals4","siRNA no.":1,"GFP, % of control":77.5,"viability (ATP), % of control":61.6,"Call":"inactive"}
{"gene":"Lgals4","siRNA no.":2,"GFP, % of control":66.8,"viability (ATP), % of control":64.2,"Call":"inactive"}
{"gene":"Lgals4","siRNA no.":3,"GFP, % of control":59.7,"viability (ATP), % of control":56.8,"Call":"inactive"}
{"gene":"Fbll1","siRNA no.":1,"GFP, % of control":51.2,"viability (ATP), % of control":30,"Call":"inactive"}
{"gene":"Fbll1","siRNA no.":2,"GFP, % of control":88.4,"viability (ATP), % of control":37.3,"Call":"inactive"}
{"gene":"Fbll1","siRNA no.":3,"GFP, % of control":66.7,"viability (ATP), % of control":75.3,"Call":"inactive"}
{"gene":"Ubqln1","siRNA no.":1,"GFP, % of control":54.4,"viability (ATP), % of control":47.7,"Call":"inactive"}
{"gene":"Ubqln1","siRNA no.":2,"GFP, % of control":91.6,"viability (ATP), % of control":55.2,"Call":"inactive"}
{"gene":"Ubqln1","siRNA no.":3,"GFP, % of control":81.6,"viability (ATP), % of control":103,"Call":"inactive"}
{"gene":"Adam19","siRNA no.":1,"GFP, % of control":75.7,"viability (ATP), % of control":62,"Call":"inactive"}
{"gene":"Adam19","siRNA no.":2,"GFP, % of control":151,"viability (ATP), % of control":103,"Call":"active"}
{"gene":"Adam19","siRNA no.":3,"GFP, % of control":99.1,"viability (ATP), % of control":99,"Call":"inactive"}
{"gene":"Hsdl1","siRNA no.":1,"GFP, % of control":49.6,"viability (ATP), % of control":41.8,"Call":"inactive"}
{"gene":"Hsdl1","siRNA no.":2,"GFP, % of control":68.5,"viability (ATP), % of control":67.7,"Call":"inactive"}
{"gene":"Hsdl1","siRNA no.":3,"GFP, % of control":93.9,"viability (ATP), % of control":105,"Call":"inactive"}
{"gene":"Zfp420","siRNA no.":1,"GFP, % of control":63.1,"viability (ATP), % of control":64.6,"Call":"inactive"}
{"gene":"Zfp420","siRNA no.":2,"GFP, % of control":30.6,"viability (ATP), % of control":42.4,"Call":"inactive"}
{"gene":"Slitrk3","siRNA no.":1,"GFP, % of control":50.1,"viability (ATP), % of control":34.5,"Call":"inactive"}
{"gene":"Slitrk3","siRNA no.":2,"GFP, % of control":82.9,"viability (ATP), % of control":81.4,"Call":"inactive"}
{"gene":"Slitrk3","siRNA no.":3,"GFP, % of control":48.9,"viability (ATP), % of control":71.2,"Call":"inactive"}
{"gene":"Lap3","siRNA no.":1,"GFP, % of control":75.6,"viability (ATP), % of control":96,"Call":"inactive"}
{"gene":"Lap3","siRNA no.":2,"GFP, % of control":75.3,"viability (ATP), % of control":68.5,"Call":"inactive"}
{"gene":"Lap3","siRNA no.":3,"GFP, % of control":80.4,"viability (ATP), % of control":77.3,"Call":"inactive"}
{"gene":"Mitf","siRNA no.":1,"GFP, % of control":105,"viability (ATP), % of control":84.1,"Call":"inactive"}
{"gene":"Mitf","siRNA no.":2,"GFP, % of control":74.3,"viability (ATP), % of control":81.5,"Call":"inactive"}
{"gene":"Mitf","siRNA no.":3,"GFP, % of control":83.6,"viability (ATP), % of control":74.6,"Call":"inactive"}
{"gene":"Bbc3","siRNA no.":1,"GFP, % of control":102,"viability (ATP), % of control":45.2,"Call":"inactive"}
{"gene":"Bbc3","siRNA no.":2,"GFP, % of control":86.9,"viability (ATP), % of control":78.7,"Call":"inactive"}
{"gene":"Bbc3","siRNA no.":3,"GFP, % of control":110,"viability (ATP), % of control":124,"Call":"inactive"}
{"gene":"Fxr2","siRNA no.":1,"GFP, % of control":98,"viability (ATP), % of control":79.8,"Call":"inactive"}
{"gene":"Fxr2","siRNA no.":2,"GFP, % of control":74.8,"viability (ATP), % of control":50.6,"Call":"inactive"}
{"gene":"Fxr2","siRNA no.":3,"GFP, % of control":82.7,"viability (ATP), % of control":78.5,"Call":"inactive"}

Reprinted from above, 5 entries:
{"gene":"Hsdl1","siRNA no.":1,"GFP, % of control":49.6,"viability (ATP), % of control":41.8,"Call":"inactive"}
{"gene":"Hsdl1","siRNA no.":2,"GFP, % of control":68.5,"viability (ATP), % of control":67.7,"Call":"inactive"}
{"gene":"Hsdl1","siRNA no.":3,"GFP, % of control":93.9,"viability (ATP), % of control":105,"Call":"inactive"}
{"gene":"Zfp420","siRNA no.":1,"GFP, % of control":63.1,"viability (ATP), % of control":64.6,"Call":"inactive"}
{"gene":"Zfp420","siRNA no.":2,"GFP, % of control":30.6,"viability (ATP), % of control":42.4,"Call":"inactive"}
